# Measured values as given in PubChem BioAssay AID1259415 (National Center for Advancing Translational Sciences (NCATS), 2018).
# The campaign covered roughly 410,000 compounds. About 18,000 (4.4%) were called active. The inconclusive results got no clear call from the source; some entries with a clear call stand among them for comparison. Rule as the data show it: active = activity change below about -60%; inconclusive = no clear call, values can overlap the other calls; inactive = above about -39%.
# Assay: qHTS Assay for inhibitors of the human cytomegalovirus (HCMV)
# Conditions: HFF cells, HCMV-luciferase reporter, 72 h; at 57.5 µM; hits give low values
# How it was run: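 HFF cells seeded 16 h at 37C, treated with compounds, infected with luciferase-reporter HCMV at MOI 1 PFU/cell; luciferase read at 72 h post infection, normalized to buffer-only and Salinomycin controls.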
# % is scaled to controls: 0 for no effect and ±100 for the full control effect.
row,SMILES,"activity change, negative = inhibition"
1,COc1ccc(CC(=O)Nc2ccncc2Cl)cc1,active: -92.4%
2,O=C(Nc1cccc(C(F)(F)F)c1)n1cc(-c2ccccn2)c(N2CCOCC2)n1,active: -64%
3,CCCOc1ccc(C(=O)Nc2ccc(CN3CCOCC3)cc2)cc1,inconclusive: -42.8%
4,Cc1[nH]oc(=O)c1N=Nc1ccccc1,inconclusive: -46%
5,Cn1c(SCc2ccccc2)nnc1-c1cnccn1,active: -61.2%
6,CCCCNS(=O)(=O)c1ccc2nc(-c3cccnc3)cc(C(=O)NCCC)c2c1,active: -66%
7,O=C1C(Cl)=C(N2CCCCC2)C(=O)N1Cc1ccccc1,inconclusive: -43.9%
8,C[C@@H]1CN([C@H](C)CO)C(=O)CCCn2nncc2CO[C@H]1CN(C)C(=O)Oc1ccc2ccccc2c1,inconclusive: -54.3%
9,CNCCCC12CCC(c3ccccc31)c1ccccc12,inconclusive: -52.4%
10,CC(C)(C)NC(=O)C(c1ccccn1)N(C(=O)c1csnn1)C1CCCCC1 (stereo not given),inconclusive: -45.5%
11,COc1ccc(CCNC(=S)N2CCN(S(=O)(=O)c3ccccc3F)CC2)cc1,inconclusive: -40.6%
12,COc1ccc(-c2csc3nc(-c4ccccc4OC)oc(=O)c23)cc1,active: -69.4%
13,COC(=O)c1ccc(N2NC(=O)/C(=C/c3ccc(-c4ccc(Cl)c(C(=O)O)c4)o3)C2=O)cc1,inconclusive: -41.4%
14,O=C(c1cccs1)N(Cc1cccnc1)c1nc2ccc(F)cc2s1,inconclusive: -48.9%
15,O=C(Nc1ccc(CN2CCOCC2)cc1)c1cc2ccccn2n1,inactive: 70.1%
16,Cc1ccc2c(CC(=O)NC3CCCc4ccccc43)coc2c1 (stereo not given),inconclusive: -46.1%
17,COc1ccccc1-c1nnc2sc(C3CCCCC3)nn12,inconclusive: -40.9%
18,Cc1ncoc1C(=O)N1CCCC(C(=O)c2ccc(-c3ccccc3)cc2)C1 (stereo not given),inconclusive: -47.3%
19,C=CCn1c(O)c(N=NC(=S)Nc2cccc(C)c2)c2ccccc21,inactive: -36.7%
20,Cc1cccc(-n2ncc3c2CCCC3NC(=O)Cc2c(C)noc2C)c1C (stereo not given),inconclusive: -59.1%
21,Cc1ccc(C(=O)NC(NC(=O)c2ccc(C)cc2)C(Cl)Cl)cc1,inconclusive: -53.5%
22,Cc1ccccc1Cn1nc(C)c(NC(=O)c2noc3c2CC(C(C)(C)C)CC3)c1C (stereo not given),inconclusive: -43.9%

# 21 entries from above, set out differently.
row	SMILES	activity change, negative = inhibition
1	COc1ccc(CC(=O)Nc2ccncc2Cl)cc1	active: -92.4%
2	O=C(Nc1cccc(C(F)(F)F)c1)n1cc(-c2ccccn2)c(N2CCOCC2)n1	active: -64%
3	CCCOc1ccc(C(=O)Nc2ccc(CN3CCOCC3)cc2)cc1	inconclusive: -42.8%
5	Cn1c(SCc2ccccc2)nnc1-c1cnccn1	active: -61.2%
6	CCCCNS(=O)(=O)c1ccc2nc(-c3cccnc3)cc(C(=O)NCCC)c2c1	active: -66%
7	O=C1C(Cl)=C(N2CCCCC2)C(=O)N1Cc1ccccc1	inconclusive: -43.9%
8	C[C@@H]1CN([C@H](C)CO)C(=O)CCCn2nncc2CO[C@H]1CN(C)C(=O)Oc1ccc2ccccc2c1	inconclusive: -54.3%
9	CNCCCC12CCC(c3ccccc31)c1ccccc12	inconclusive: -52.4%
10	CC(C)(C)NC(=O)C(c1ccccn1)N(C(=O)c1csnn1)C1CCCCC1 (stereo not given)	inconclusive: -45.5%
11	COc1ccc(CCNC(=S)N2CCN(S(=O)(=O)c3ccccc3F)CC2)cc1	inconclusive: -40.6%
12	COc1ccc(-c2csc3nc(-c4ccccc4OC)oc(=O)c23)cc1	active: -69.4%
13	COC(=O)c1ccc(N2NC(=O)/C(=C/c3ccc(-c4ccc(Cl)c(C(=O)O)c4)o3)C2=O)cc1	inconclusive: -41.4%
14	O=C(c1cccs1)N(Cc1cccnc1)c1nc2ccc(F)cc2s1	inconclusive: -48.9%
15	O=C(Nc1ccc(CN2CCOCC2)cc1)c1cc2ccccn2n1	inactive: 70.1%
16	Cc1ccc2c(CC(=O)NC3CCCc4ccccc43)coc2c1 (stereo not given)	inconclusive: -46.1%
17	COc1ccccc1-c1nnc2sc(C3CCCCC3)nn12	inconclusive: -40.9%
18	Cc1ncoc1C(=O)N1CCCC(C(=O)c2ccc(-c3ccccc3)cc2)C1 (stereo not given)	inconclusive: -47.3%
19	C=CCn1c(O)c(N=NC(=S)Nc2cccc(C)c2)c2ccccc21	inactive: -36.7%
20	Cc1cccc(-n2ncc3c2CCCC3NC(=O)Cc2c(C)noc2C)c1C (stereo not given)	inconclusive: -59.1%
21	Cc1ccc(C(=O)NC(NC(=O)c2ccc(C)cc2)C(Cl)Cl)cc1	inconclusive: -53.5%
22	Cc1ccccc1Cn1nc(C)c(NC(=O)c2noc3c2CC(C(C)(C)C)CC3)c1C (stereo not given)	inconclusive: -43.9%

# More records

row,SMILES,"activity change, negative = inhibition"
1,O=c1[nH]c(/C(=N\O)c2ccccc2)no1,inactive: -16%
2,O=c1cc(CN2CCN(c3ccccc3F)CC2)c2ccccc2o1,inactive: -13.6%
3,N#Cc1ccccc1Cn1c(=O)n(C2CCCC2)c(=O)c2ccccc21,inconclusive: -48%
4,O=C(CSc1nc(C2CCCCC2)nc2ccccc12)NCc1ccc2c(c1)OCO2,inconclusive: -59.1%
5,COc1cccc(NC(=O)N(C)C[C@H]2Oc3cc(C#Cc4ccncc4)ccc3S(=O)(=O)N([C@H](C)CO)C[C@H]2C)c1,active: -109%
6,COc1ccc(CNC(=O)C[C@H]2C[C@H](C(=O)N3CCOCC3)[C@@]3(CCC4CCCC4)c4[nH]c5ccc(Cl)cc5c4CCN3C2=O)cc1OC,inconclusive: -43%
7,Cc1ccc(CC2(OCCN(C)C)CCC(C(C)(C)C)CC2)cc1 (stereo not given),inconclusive: -56.6%
8,Cn1c(/N=C/c2c(O)ccc3ccccc23)nc2ccccc21,active: -84.8%
9,N#Cc1ccc(Cl)cc1NC(=O)COC(=O)c1cccc(S(=O)(=O)N2CCOCC2)c1,inactive: 6.63%
10,O=C(CSCc1ccccc1Cl)NNC(=S)Nc1ccccc1,inactive: 16.1%
11,Cc1coc2c1C(=O)C(=O)c1c-2ccc2c1CCCC2(C)C,inconclusive: -52.9%
12,CCC(C)(C)NC(=S)Nc1ccccc1C,inconclusive: -41.5%
13,O=C(Nc1ccccc1F)c1ccc([N+](=O)[O-])s1,inconclusive: -51.7%
14,CN(CC(=O)c1c(N)n(C)c(=O)n(C)c1=O)c1ccccc1,inconclusive: -40.5%
15,COc1ccc(C(=O)O)cc1S(=O)(=O)NC1CCN(Cc2ccccc2)CC1,inconclusive: -42.2%
16,Cc1cccc(N2CCN(C(=O)c3ccc4c(c3)N(Cc3ccccc3F)C(=O)c3ccccc3S4=O)CC2C)c1 (stereo not given),active: -63.7%
17,CCCCC(=O)NC(c1ccccc1)c1ccc2cccnc2c1O (stereo not given),active: -99.6%
18,Cn1c(=O)c2cc(NC(=O)CCc3ccc4c(c3)OCO4)ccc2n1Cc1ccc(F)cc1,inconclusive: -59.9%
19,Cc1onc(C(=O)NCc2ccc(F)cc2)c1[N+](=O)[O-],inconclusive: -47.6%
20,Cc1nnc(NC(=O)CS(=O)(=O)Cc2ccccc2)s1,inactive: -26.3%
21,CN(C(=O)COC(=O)CNC(=O)c1sc2ccccc2c1Cl)C1CCS(=O)(=O)C1 (stereo not given),inactive: 24.5%
22,O=C1CCC(C(=O)N2CCOCC2)CN1Cc1ccc(Cl)cc1 (stereo not given),inconclusive: -50.6%

row,SMILES,"activity change, negative = inhibition"
1,Cc1nn(-c2ccccc2)c(N2CCCC2)c1/C=N/NC(=S)Nc1ccc(F)cc1,inconclusive: -48.6%
2,CCCCCNc1nc2sc3c(c2c(=O)n1-c1cccc(Cl)c1)CCN(C)C3,inconclusive: -57.9%
3,COc1ccc(NC(=O)CSc2nc3ccccc3[nH]2)cc1,inactive: 2.79%
4,C#CCCC[C@@H]1OC(=O)CNC(=O)C([C@@H](C)CC)NC(=O)[C@@H]2CCCN2C(=O)C([C@@H](C)CC)OC(=O)[C@H](Cc2ccccc2)N(C)C(=O)[C@H](C(C)C)NC(=O)C1(C)C (stereo not given in full),inconclusive: -56.4%
5,CC(=O)c1cccc(-n2nnnc2SCC(=O)Nc2cc(C)on2)c1,inconclusive: -40.4%
6,Cc1ccc2nc(COc3ccc(NC(=O)COc4ccccc4F)cc3)cc(=O)n2c1,inactive: 20.4%
7,C#CCOCC1CN(C)C(=O)O1 (stereo not given),inactive: 4.57%
8,CC1(C(=O)NS(=O)(=O)c2ccc(C#N)cc2)CCN1C(=O)c1cccc2ccccc12 (stereo not given),inconclusive: -57.7%
9,O=C(NC(=S)Nc1cccc(NC(=O)c2ccccc2Cl)c1)c1cccs1,inconclusive: -57.8%
10,CCOC(=O)[C@]12Cc3cc4ccccc4cc3[C@H]1N(Cc1ccccc1)C(=O)c1ccccc12,active: -96.8%
11,COC(=O)c1c(C)oc2ccc(N(C(=O)c3ccncc3)S(=O)(=O)c3cc(C)c(C)cc3C)cc12,active: -60.1%
12,COc1ccc(-c2noc(CN(C)C(=O)Nc3ccccc3)n2)cc1,inconclusive: -42.8%
13,COCC(C)OC(=O)c1c(N)n(CC(C)C)c2nc3ccccc3nc12 (stereo not given),inconclusive: -42.9%
14,CCOc1ccc(C(=O)Nc2c(C(=O)c3ccccc3)oc3ccccc23)cc1,inconclusive: -43.2%
15,N#C/C(=C\c1cn(CCOc2ccccc2)c2ccccc12)C(=O)NCc1ccco1,inconclusive: -50%
16,CCOc1ccccc1C1N=C(N)Nc2nc3ccccc3n21 (stereo not given),inactive: 10.7%
17,COC(/C(=N/O)c1ccc(Cl)cc1)c1ccccc1 (stereo not given),active: -94.2%
18,CC1CCN(C(=O)c2ccc(NS(=O)(=O)c3cccc4cccnc34)cc2)CC1,inconclusive: -46.7%
19,CCOC(=O)Cc1csc(N/C(=N/S(=O)(=O)c2ccc(F)cc2F)c2ccccc2)n1,inconclusive: -48.1%
20,CCN(CC(=O)NC(C)(C)C)C(=O)COc1c(Cl)cc(Cl)c2ccc(C)nc12,inconclusive: -50.9%
21,Clc1ccc(OCCN2CCOCC2)cc1Cl,inactive: -22.3%
22,CCOC(=O)c1c(NC(C)=O)c2c3c(sc2n1Cc1nc(-c2ccc(Cl)cc2)oc1C)CCCC3,inconclusive: -40.9%

row,SMILES,"activity change, negative = inhibition"
1,CCCc1cc(C(=O)Nc2ccc(OC)cc2[N+](=O)[O-])cs1,inactive: 1.29%
2,CC(Sc1nnnn1-c1cccc(F)c1)C(=O)NC1CCCC1 (stereo not given),inactive: 24.8%
3,COc1ccc(N2CCN(C(=O)Cc3coc4ccc(C)cc34)CC2)cc1,active: -114%
4,Cc1c(NC(=O)/C(C#N)=C/c2ccc(-c3ccc(Cl)cc3)o2)c(=O)n(-c2ccccc2)n1C,inconclusive: -55.6%
5,Cc1cccc(N2C(=O)c3ccccc3C2=O)n1,inactive: 0.55%
6,COc1ccc(OC)c(Nc2ccc(Nc3cc(OC)ccc3OC)nn2)c1,active: -86.3%
7,Cc1ccc(C)c(C(=O)CSc2nc3ccccc3c(=O)[nH]2)c1,active: -66.2%
8,COc1cc(Cn2c(N)c(C#N)c3nc4ccccc4nc32)cc(OC)c1,inactive: 18.1%
9,Cc1cc(=O)n2[nH]c(SCc3c(F)cccc3Cl)nc2n1,inconclusive: -52%
10,CN(CCOc1ccc(Cl)cc1)C(=O)c1cccc(S(=O)(=O)N2CCN(Cc3ccccc3)CC2)c1,inconclusive: -59.2%
11,COc1ccccc1C(CC(=O)N1CCCC1)c1ccc2c(c1)OCO2 (stereo not given),inconclusive: -50.2%
12,CC(C)CN(C(=O)CSc1nnc(-c2cccs2)n1C1CC1)C1CCS(=O)(=O)C1 (stereo not given),inconclusive: -54.4%
13,Fc1ccccc1C(c1nnnn1C1CCCC1)N1CCN(Cc2ccccc2)CC1 (stereo not given),inconclusive: -45.7%
14,Cc1cc(NC(=O)CCCN2C(=O)/C(=C/c3ccccc3Cl)SC2=S)no1,inconclusive: -51.2%
15,Cc1ccc(C(=O)ONc2ccc(N=O)cc2)cc1,inconclusive: -47.2%
16,CCN(C(=O)/C=C/c1ccc2c(c1)OCO2)c1ccccc1,active: -70.6%
17,Cc1ccc2nc(/C(C#N)=C/c3cccc(Br)c3)[nH]c2c1,inconclusive: -40.3%
18,COc1ccc(CCNC(=O)c2ccc(NC(=O)CC3SC(N4CCCCC4)=NC3=O)cc2)cc1OC (stereo not given),inconclusive: 0%
19,COc1cc(-c2cc(C(=O)Nc3ccc(C)c(S(=O)(=O)N4CCOCC4)c3)c3ccccc3n2)cc(OC)c1OC,inactive: 10.1%
